± gives the standard deviation of the averaged measurements.
Tests used:
[1] = tested on: UT-SCC-14; experiment: drug sensitivity score (DSS); higher = more sensitive; extreme values may be limits of the assay; settings: culture condition: embedded in Matrigel; treatment time: 3 days
Protocol: (§1)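 HNSCC cell lines (500 cells/well, 384-well) were cultured on plastic, on top of (2D) or embedded (3D) in Matrigel or human leiomyoma matrix Myogel (500 ug/mL; Myogel 3D mixed with rat collagen I). Cells were treated for 3 days with 5 ten-fold concentrations of each drug, and viability was read by CellTiter-Glo. Viability was normalised to DMSO and benzethonium chloride controls and fitted with the FIMM DSRT pipeline to give IC50 (nM), maximal % inhibition and DSS. Suffixes _1/_2/_3 are replicates. Only inhibition-mode (IC50) fits are kept.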

[2] = tested on: UT-SCC-42A; experiment: as above; settings: culture condition: embedded in Matrigel; treatment time: 3 days
Protocol: as §1

[3] = tested on: UT-SCC-24A; experiment: drug sensitivity score (DSS); higher = more sensitive; settings: culture condition: embedded in Myogel + collagen I; treatment time: 3 days
Protocol: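 HNSCC cell lines (500 cells/well, 384-well) were cultured on plastic, on top of (2D) or embedded (3D) in Matrigel or human leiomyoma matrix Myogel (500 ug/mL; Myogel 3D mixed with rat collagen I). Cells were treated for 3 days with 5 ten-fold concentrations of each drug, and viability was read by CellTiter-Glo. Viability was normalised to DMSO (0% inhibition) and 100 uM benzethonium chloride (100% inhibition) controls and fitted with the FIMM DSRT pipeline to give IC50 (nM), maximal % inhibition and the drug sensitivity score (DSS). Suffixes _1/_2/_3 on drug names are replicates.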

COc1cc2ncnc(Nc3ccc(F)c(Cl)c3)c2cc1OCCCN1CCOCC1 [Gefitinib]
drug sensitivity score [1]: 6.33 ± 4.1 DSS
drug sensitivity score [2]: 5.27 ± 4.7 DSS
drug sensitivity score [3]: 6.37 ± 2.8 DSS

From the supplement of paper PMC7017272
